Measurements reported in PubChem BioAssay AID602196 (INSERM, 2012)
Shown is an unselected part of about 23,000 reagents tested. Of all reagents, 455 (2%) got an active call. 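Active includes both protection and sensitisation; some change values fall well beyond the stated -50 to +50 range.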 Not given: the amount of reagent.

Assay: 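Modifiers of cisplatin sensitivity in A549 cells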
Cells: human A549 lung cancer cells
Knock-down reagent: siRNA pair against human genes
Timing: 48 h transfection before cisplatin; time from cisplatin to read-out not stated
Conditions: cisplatin at a dose killing half of control-siRNA cells; exact dose and duration not given
Read-out: 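Cisplatin cell death as a shift from the 50% death seen with control siRNA; siRNAs toxic or growth-blocking alone scored 0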
Direction: two-siRNA summed score (-2 to +2): higher = both siRNAs protect from cisplatin killing; -2 means both sensitise; mean protection from cisplatin (shift in death) and protection from cisplatin (shift in death), siRNA C and protection from cisplatin (shift in death), siRNA D: higher = protection from cisplatin killing
Rule for the call: 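siRNAs harmful alone (LDH or WST-1) get 0; others get +1 for less and -1 for more cisplatin killing; genes are active when the two siRNAs give the same sign, summing to ±2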
Meaning of the calls: active = both siRNAs shift cisplatin killing the same way; inactive = no consistent shift, or siRNA harmful alone

Gene | two-siRNA summed score (-2 to +2) | mean protection from cisplatin (shift in death) (%) | protection from cisplatin (shift in death), siRNA C (%) | protection from cisplatin (shift in death), siRNA D (%) | Call
OR52N2 | 0 | 16.5 | 20.5 | 12.5 | inactive
LOC441104 | 0 | 4.5 | 2.3 | 6.7 | inactive
HP1BP3 | 0 | 4.4 | 9 | -0.1 | inactive
TUBA1A | -1 | -16.8 | -8.7 | -25 | inactive
CHD8 | -1 | -4.5 | 10.5 | -19.5 | inactive
LOC389707 | 0 | 16.1 | 23.3 | 8.9 | inactive
CNTNAP1 | 0 | 5.2 | -0.8 | 11.2 | inactive
NMD3 | 0 | -3.7 | -3 | -4.3 | inactive
PRORP | 0 | 8.6 | 14.2 | 3.1 | inactive
KLHL3 | 0 | 8.6 | -6.6 | 23.8 | inactive
QSER1 | 0 | 8.6 | 14.1 | 3 | inactive
LOC402582 | 0 | 1.6 | -1.4 | 4.5 | inactive
LOC341370 | 1 | 10.6 | 27.2 | -6 | inactive
CBY1 | 1 | 12.5 | 17.7 | 7.3 | inactive
LOC387825 | 0 | 12.1 | 10.8 | 13.5 | inactive
NECAB1 | 0 | 6.1 | 9.6 | 2.6 | inactive
CUL1 | 1 | -9.2 | 17.7 | -36 | inactive
RIN1 | -1 | -9.6 | 1.6 | -20.8 | inactive
IPMK | 0 | 5.6 | -0.7 | 11.8 | inactive
SLC12A8 | -1 | -12.5 | -8.1 | -16.9 | inactive
ARHGEF10L | 0 | 9.7 | 10.9 | 8.4 | inactive
LOC392451 | 0 | 12.8 | 22.6 | 2.9 | inactive
USP35 | 0 | 5.9 | 10.9 | 0.9 | inactive
